No constants are given. Whether binding was seen depends on the method and setting. Binding seen in cells or lysates may run through a third protein. For some assays here: Binding calls can cover weak binding; strength is not graded here. For some assays here: Where a sequence is shown, tags or fusion partners need not be part of it.
What was measured:
[1] = target: GST-tagged β1 integrin cytoplasmic tail Y800A; assay: pull-down; direct binding assay: recombinant His-tagged Kindlin-1 C-terminus co-precipitated with GST-tagged β1 integrin cytoplasmic tails; both purified
[2] = target: GST-tagged β1 integrin cytoplasmic tail; assay: as above
[3] = target: GST-tagged β1 integrin cytoplasmic tail Y800A; assay: pull-down; 5 µg recombinant GST-β integrin tails incubated overnight with 500 µg IEC lysate (50 mM Tris pH 7.4, 150 mM NaCl, 1 mM EDTA, 1% Triton-X-100), precipitated with glutathione beads, western blot for Kindlin-1 and GST; also done with keratinocyte lysates; only the target purified
[4] = target: GST-tagged β1 integrin cytoplasmic tail Y788A; assay: as above
[5] = target: GST-tagged β1 integrin cytoplasmic tail; assay: as above

binding [1]	binding [2]	binding [3]	binding [4]	binding [5]	Binder
no binding	binds				His-tagged C-terminal FERM domain of Kindlin-1 (aa 471–677) (domain or fragment, UniProt P59113 471-677) ASKGKTMADSSYQPEVISILSFLKMKNRNSSPLVASSLENMDMNPECLVSPCCAKKHKSKQLAARILEAHHNVAQMPLVEAKLQFIQAWQSLPEFGLTYYLVRFKGSKKDDILGVAYNRLIRIDAVTGIPVTTWRFANMKQWNVNWEIRQVAIEFDQNVSIAFTCLSADCKIVHEYIGGYIFLSTRSKDQNETLDEDLFHKLTGGQD
		no binding	binds	binds	Kindlin-1 (protein, UniProt P59113 1-677) MLSSGDLTSASWELVVRVDHANGEQQTEITLRVSGDLHIGGVMLKLVEQMNIAQDWSDYALWWEQKRCWLLKTHWTLDKCGVQADANLLFTPQHKMLRLRLPNAKTVRLRVSFSAVVFKAVADICKVLNIRRPEELSLLKPSSDYCKKKKKKEKNSKEPVIEDILNLESSSTSSGSPVSPGLYSKTMTPTYDPINGTPALSTMTWFGDSPLTEQNCSVLAFSQPPPSPDVLADMFQPRSLVDKAKMNAGWLDSSRSLMEQSIQEDEQLQLRFKYYTFFDLNPKYDAVRINQLYEQARWAVLLEEIDCTEEEMLIFAALQYHISKLSQCAEIQDFATKSEVDEVEAALSSLEVTLEGGKADNTLEDITDIPKLADYLKLFRPKKLMLKACKQYWFVFKDTSIAYFKNKELEQGEPIEKLNLRGCEIVPDVNVSGRKFGIKLLIPVADGMNEVYLRCDHEDQYARWMAACILASKGKTMADSSYQPEVISILSFLKMKNRNSSPLVASSLENMDMNPECLVSPCCAKKHKSKQLAARILEAHHNVAQMPLVEAKLQFIQAWQSLPEFGLTYYLVRFKGSKKDDILGVAYNRLIRIDAVTGIPVTTWRFANMKQWNVNWEIRQVAIEFDQNVSIAFTCLSADCKIVHEYIGGYIFLSTRSKDQNETLDEDLFHKLTGGQD
